Where two headings read alike, the source gives them in different places. The structures given here were assigned with low confidence; some may be wrong.

Sequences of proteins named here, by UniProt entry; tags and fusion partners are left off.
UniProt P30874, whole entry: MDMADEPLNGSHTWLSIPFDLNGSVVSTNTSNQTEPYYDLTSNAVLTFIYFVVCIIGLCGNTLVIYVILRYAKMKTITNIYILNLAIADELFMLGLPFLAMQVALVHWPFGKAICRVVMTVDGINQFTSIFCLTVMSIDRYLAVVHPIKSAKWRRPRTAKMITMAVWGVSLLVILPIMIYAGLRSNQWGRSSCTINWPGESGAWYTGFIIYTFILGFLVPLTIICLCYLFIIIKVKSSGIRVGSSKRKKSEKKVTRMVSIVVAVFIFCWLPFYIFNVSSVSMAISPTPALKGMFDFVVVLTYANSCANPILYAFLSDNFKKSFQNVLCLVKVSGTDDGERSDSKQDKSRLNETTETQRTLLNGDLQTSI
UniProt P30968, whole entry: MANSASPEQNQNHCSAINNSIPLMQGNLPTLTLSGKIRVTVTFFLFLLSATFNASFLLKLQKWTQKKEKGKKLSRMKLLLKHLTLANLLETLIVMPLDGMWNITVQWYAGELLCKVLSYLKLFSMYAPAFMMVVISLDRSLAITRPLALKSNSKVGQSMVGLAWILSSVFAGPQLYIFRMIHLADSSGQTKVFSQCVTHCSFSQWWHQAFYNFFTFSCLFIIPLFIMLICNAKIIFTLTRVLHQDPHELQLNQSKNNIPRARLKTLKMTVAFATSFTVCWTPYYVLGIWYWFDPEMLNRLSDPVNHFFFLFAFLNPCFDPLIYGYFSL

By EC50 is commonly meant the concentration needed to bring the measured effect to its halfway point.

In assay [1] the target is human somatostatin receptor subtype 2 (Homo sapiens, UniProt P30874). As to the kind of experiment: Functional cAMP assay for SSTR2 agonists. The following applies: Peptide GPCR SST2. For orientation: cAMP levels reflect the balance of adenylyl cyclase and phosphodiesterase activity.
The target of a further assay is human GnRH receptor (Homo sapiens, UniProt P30968). As to the kind of experiment: Functional IP-One assay for GnRHR. The following applies: read-out: Conjugate Activity (EC50), Peptide GPCR GnRH, FlpIn T-Rex 293 cells expressing human GnRH receptor.
The mark [2] stands for this setting: read-out: Conjugate Activity (EC50), CHO-K1 cells expressing human SSTR2, cAMP.
Where [3] appears, read: read-out: NP Ligand activity EC50, value of the unconjugated NP ligand of the conjugate shown in the row, not of the conjugate itself.

Consider `COc1cc2cc(c1Cl)N(C)C(=O)CC(OC(=O)C(C)N(C)C(=O)CCC(C)(C)SSCCCC(=O)NCCOCCOCCOCCOCCOCCOCCOCCOCCC(=O)N1CCN(c3ncc(-c4cc(C)cc(F)c4)c(N4CCC(N)CC4)c3-c3nc4ccc(Cl)cc4[nH]3)CC1)C1(C)OC1C(C)C1CC(O)(NC(=O)O1)C(OC)C=CC=C(C)C2` (centres unmarked), for which the EC50 is 0.74 nM in assay [1] (setting [2]) and 8.7 nM in assay [1] (setting [3]).
`CCC(C)C(C(CC(=O)N1CCCC1C(OC)C(C)C(=O)NC(C)C(O)c1ccccc1)OC)N(C)C(=O)C(NC(=O)C(C(C)C)N(C)C(=O)OCc1ccc(NC(=O)C(CCCNC(N)=O)NC(=O)C(NC(=O)CCCC(=O)NCCOCCOCCOCCOCCOCCOCCOCCOCCC(=O)N2CCN(c3ncc(-c4cc(C)cc(F)c4)c(N4CCC(N)CC4)c3-c3nc4ccc(Cl)cc4[nH]3)CC2)C(C)C)cc1)C(C)C` (centres unmarked): the EC50 stood at 1.5 nM in assay [1] (setting [2]) and 8.7 nM in assay [1] (setting [3]).
Turning to `CC[C@H](C)[C@@H]([C@@H](CC(=O)N1CCC[C@H]1[C@H](OC)[C@@H](C)C(=O)NCCc1ccccn1)OC)N(C)C(=O)[C@@H](NC(=O)[C@H](C(C)C)N(C)CCOCCOCCOCCNc1nc(OC)c(NC(=O)c2ccc(Oc3cc4c(cc3C)CCC4(C)C)o2)c(OC)n1)C(C)C`, at human GnRH receptor, the EC50 was 4.1 nM.

The record behind these values is patent publication US20240285628A1.
